PubChem BioAssay AID493246, Drosophila RNAi Screening Center | 2011
Test: 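Genes fly cells need to grow and stay alive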 (primary screen). System: Drosophila Kc and S2R+ cells. Reagents: long dsRNA against Drosophila genes. Read-out: 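Raw, unnormalised count of remaining cells in each well; per-plate z-scores of cell number underlie the calls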. Direction: Kc cell number and S2R+ cell number: higher = more cells remaining. Rule for the call: 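Active when the per-plate z-score of cell number is 3 or more in the direction of fewer cells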.
In all, the deposit lists about 21,000 reagents; shown is a random part of those with a known target gene and a result. In the full data, 429 (2%) are marked active. 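Values are raw and not normalised between plates; calls rest on per-plate z-scores that were not deposited.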 A number with no mark means an inactive call. Reagent sequences are not shown. The record does not give: the amount of reagent, the time to read-out.

The first 2 records, to show the layout:
no.	Target gene	dsRNA	Kc cell number, rep 1	Kc cell number, rep 2	S2R+ cell number, rep 1	S2R+ cell number, rep 2
1	Rbp9 (RNA-binding protein 9)	DRSC00416	1.60e6	1.56e6	1.12e6	1.20e6
2	Rbp9 (RNA-binding protein 9)	DRSC00779	1.35e6	1.49e6	9.49e5	1.05e6

The listing, from the first entry:
no.	Target gene	dsRNA	Kc cell number, rep 1	Kc cell number, rep 2	S2R+ cell number, rep 1	S2R+ cell number, rep 2
1	Rbp9 (RNA-binding protein 9)	DRSC00416	1.60e6	1.56e6	1.12e6	1.20e6
2	Rbp9 (RNA-binding protein 9)	DRSC00779	1.35e6	1.49e6	9.49e5	1.05e6
3	Ser8	DRSC06891	1.40e6	1.46e6	1.21e6	1.32e6
4	CkIIbeta (Casein kinase II beta subunit)	DRSC20230	1.50e6	1.53e6	9.30e5	1.02e6
5	CG8907	DRSC16453	1.47e6	1.60e6	1.09e6	1.14e6
6	CG18605	DRSC06772	1.72e6	1.74e6	1.26e6	1.53e6
7	Prp38 (pre-mRNA processing factor 38)	DRSC07060	1.11e6	1.25e6	8.47e5	7.92e5
8	Prosap	DRSC06382	1.64e6	1.76e6	1.44e6	1.64e6
9	Prosap	DRSC07081	1.40e6	1.46e6	1.11e6	1.15e6
10	CG12384	DRSC06145	1.51e6	1.64e6	1.06e6	1.07e6
11	Nckx30C	DRSC02686	1.47e6	1.53e6	1.27e6	1.35e6
12	Nckx30C	DRSC02687	1.54e6	1.61e6	1.28e6	1.47e6
13	Nckx30C	DRSC02688	1.71e6	1.85e6	1.40e6	1.56e6
14	Nckx30C	DRSC02689	1.42e6	1.46e6	9.75e5	1.16e6
15	EMC6 (ER membrane protein complex subunit 6)	DRSC14386	1.54e6	1.48e6	9.93e5	1.09e6
16	Tk (Tachykinin)	DRSC14954	1.35e6	1.69e6	1.05e6	1.13e6
17	rux (roughex)	DRSC18829	5.57e5		8.74e5	
18	cl (clot)	DRSC02118	1.28e6	1.33e6	6.51e5	9.45e5
19	Smvt (Sodium-dependent multivitamin transporter)	DRSC15426	1.65e6	1.71e6	1.04e6	1.10e6
20	kug (kugelei)	DRSC10911	1.46e6	1.51e6	1.34e6	1.31e6
21	Srp54 (Splicing regulatory protein 54)	DRSC03442	9.37e5	1.01e6	1.03e6	1.10e6
22	yuri (yuri gagarin)	DRSC01453	1.53e6	1.59e6	8.90e5	1.07e6
23	yuri (yuri gagarin)	DRSC01454	1.50e6	1.65e6	8.82e5	1.09e6
24	yuri (yuri gagarin)	DRSC01943	1.45e6	1.52e6	1.20e6	1.30e6
25	yuri (yuri gagarin)	DRSC01972	1.30e6	1.43e6	1.26e6	1.28e6
26	Rx (Retinal Homeobox)	DRSC03837	5.18e5		8.24e5	
27	Rx (Retinal Homeobox)	DRSC04652	1.69e6	1.87e6	1.41e6	3.93e5
28	CG11149	DRSC02130	1.51e6	1.35e6	1.13e6	1.21e6
29	CG12301	DRSC09875	1.42e6	1.46e6	1.38e6	1.43e6
30	E(spl)m7-HLH (Enhancer of split m7, helix-loop-helix)	DRSC16696	1.35e6	1.45e6	9.91e5	1.14e6
31	Gk1 (Glycerol kinase 1)	DRSC08533	1.35e6	1.42e6	1.24e6	1.27e6
32	Gk1 (Glycerol kinase 1)	DRSC08534	1.46e6	1.31e6	1.01e6	1.25e6
33	CG43078	DRSC10292	1.26e6	1.31e6	1.26e6	1.09e6
34	CG43078	DRSC10608	1.50e6	1.56e6	1.30e6	1.07e6
35	CG14756	DRSC06491	1.48e6	1.50e6	1.20e6	1.28e6
36	lab (labial)	DRSC12627	1.37e6	1.42e6	1.12e6	1.23e6
37	CG14659	DRSC12245	1.82e6	2.26e6	1.28e6	1.42e6
38	CG1677	DRSC18116	1.53e6	1.50e6	9.64e5	1.10e6
39	Tim13	DRSC09848	1.27e6	1.42e6	1.24e6	1.34e6
40	CG30281	DRSC04528	1.46e6	1.53e6	1.06e6	1.04e6
41	Elal (Elastin-like)	DRSC16662	1.85e6	1.86e6	1.41e6	1.48e6
42	Mkrn1 (Makorin 1)	DRSC11870	1.27e6	1.44e6	1.22e6	1.33e6
43	Or63a (Odorant receptor 63a)	DRSC08681	1.24e6	1.42e6	1.11e6	1.28e6
44	APP-BP1 (beta-Amyloid precursor protein binding protein 1)	DRSC10920	1.27e6	1.26e6	1.35e6	1.46e6
45	Tnks (tankyrase)	DRSC14154	1.59e6	1.67e6	1.01e6	1.09e6
46	asRNA:CR33945 (antisense RNA:CR33945)	DRSC14080	1.34e6	1.67e6	1.10e6	1.19e6
47	Cse1 (Chromosome segregation 1)	DRSC03287	1.38e6	1.41e6	9.83e5	1.08e6
48	CG15879	DRSC08487	1.49e6	1.34e6	1.01e6	1.29e6
49	CG7382	DRSC03052	1.23e6	1.25e6	5.17e5	8.13e5
50	nocte (no circadian temperature entrainment)	DRSC18123	6.45e5		8.42e5	
51	CG1394	DRSC19539	1.55e6	1.48e6	1.06e6	1.15e6
52	CG14673 (retired record)	DRSC12259	1.35e6	1.42e6	1.24e6	1.37e6
53	Ir48a (Ionotropic receptor 48a)	DRSC05301	1.43e6	1.56e6	1.13e6	1.14e6
54	Or88a (Odorant receptor 88a)	DRSC16770	1.25e6	1.28e6	1.14e6	1.25e6
55	PolI (DNA polymerase iota)	DRSC16267	1.54e6	1.61e6	1.31e6	1.39e6
56	CG11381	DRSC17780	1.40e6	1.41e6	8.93e5	9.92e5
57	Rpt3R (Regulatory particle triple-A ATPase 3-related)	DRSC16501	1.50e6	1.47e6	1.08e6	1.17e6
58	pico	DRSC19430	1.50e6	1.50e6	9.96e5	1.17e6
59	l(2)k10201 (lethal (2) k10201)	DRSC06439	1.63e6	1.68e6	1.35e6	1.48e6
60	l(2)k10201 (lethal (2) k10201)	DRSC07640	1.71e6	1.66e6	1.43e6	1.46e6
61	CG8319	DRSC16407	1.66e6	1.61e6	1.15e6	1.29e6
62	Ocrl (Oculocerebrorenal syndrome of Lowe)	DRSC18576	5.57e5		7.27e5	
63	CG7011	DRSC09347	1.46e6	1.56e6	1.15e6	1.36e6
64	DCAF12 (DDB1 and CUL4 associated factor 12)	DRSC15475	1.44e6	1.52e6	1.18e6	1.28e6
65	Cdc6 (Cell division cycle 6)	DRSC10563	1.22e6	1.31e6	1.11e6	1.07e6
66	CG7065	DRSC18420	5.38e5		8.33e5	
67	scny (scrawny)	DRSC10509	1.14e6	1.31e6	1.18e6	6.68e5
68	scny (scrawny)	DRSC10510	1.53e6	1.56e6	1.03e6	1.08e6
69	spz6 (spatzle 6)	DRSC04533	1.16e6	1.35e6	9.15e5	8.44e5
70	CG7766	DRSC18424	5.35e5		9.06e5	
71	Orp8 (Oxysterol-binding protein-related protein 8)	DRSC15110	1.33e6	1.28e6	9.65e5	1.13e6
72	Orp8 (Oxysterol-binding protein-related protein 8)	DRSC15712	1.55e6	1.66e6	1.16e6	1.22e6
73	Fs(2)Ket (Female sterile (2) Ketel)	DRSC03328	6.62e5 (active)	8.65e5	5.59e5	5.99e5
74	RecQ5 (RecQ5 helicase)	DRSC11266	1.55e6	1.64e6	1.21e6	1.22e6
75	CG42750	DRSC02458	2.56e5 (active)	2.87e5	3.67e5	4.65e5
76	CG42750	DRSC03019	1.79e6	1.72e6	1.24e6	1.38e6
77	CG42750	DRSC03024	1.85e6	1.88e6	1.43e6	1.72e6
